Laboratory results from publication PMC10646219.

T1: TLR6 (mouse (endogenous in DC2.4)) (UniProt Q9EPW9)
T1 sequence: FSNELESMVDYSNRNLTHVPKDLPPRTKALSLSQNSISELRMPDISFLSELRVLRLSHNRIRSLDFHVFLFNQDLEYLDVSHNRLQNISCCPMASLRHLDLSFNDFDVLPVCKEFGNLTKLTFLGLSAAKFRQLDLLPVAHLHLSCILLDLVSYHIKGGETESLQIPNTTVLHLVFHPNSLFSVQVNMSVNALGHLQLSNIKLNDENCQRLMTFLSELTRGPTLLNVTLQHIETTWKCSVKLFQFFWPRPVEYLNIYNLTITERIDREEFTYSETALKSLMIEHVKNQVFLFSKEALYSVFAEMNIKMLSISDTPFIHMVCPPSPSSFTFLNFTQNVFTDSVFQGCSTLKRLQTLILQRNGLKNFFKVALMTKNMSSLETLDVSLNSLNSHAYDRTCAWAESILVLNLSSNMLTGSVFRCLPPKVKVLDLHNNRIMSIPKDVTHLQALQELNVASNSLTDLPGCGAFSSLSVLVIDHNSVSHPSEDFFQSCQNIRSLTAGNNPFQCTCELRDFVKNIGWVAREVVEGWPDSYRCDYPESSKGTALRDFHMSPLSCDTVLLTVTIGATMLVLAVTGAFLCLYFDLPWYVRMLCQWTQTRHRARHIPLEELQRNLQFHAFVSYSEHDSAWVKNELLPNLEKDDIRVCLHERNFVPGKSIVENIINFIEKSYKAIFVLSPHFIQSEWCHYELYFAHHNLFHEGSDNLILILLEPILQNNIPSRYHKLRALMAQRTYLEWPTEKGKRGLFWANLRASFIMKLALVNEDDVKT


Assays:
[1] = target: T1, TLR6 (mouse (endogenous in DC2.4)); assay: co-IP; endogenous proteins; DC2.4 cells co-cultured 24 h with Scramble- or Arf1-ablated CT26 cells, lysed in NP-40 lysis buffer; supernatants incubated with anti-CD36, anti-TLR2, anti-TLR6 or anti-Rab7 antibody overnight at 4 °C, agarose beads 2 h, washed three times with NP-40 buffer, immunoblotting
[2] = target: Rab7 (mouse (endogenous in DC2.4)); assay: as above

binding [1] | binding [2] | Molecule
binds |  | Rab7 (mouse (endogenous in DC2.4))
 | binds | TLR6 (receptor, UniProt Q9EPW9 28-795) FSNELESMVDYSNRNLTHVPKDLPPRTKALSLSQNSISELRMPDISFLSELRVLRLSHNRIRSLDFHVFLFNQDLEYLDVSHNRLQNISCCPMASLRHLDLSFNDFDVLPVCKEFGNLTKLTFLGLSAAKFRQLDLLPVAHLHLSCILLDLVSYHIKGGETESLQIPNTTVLHLVFHPNSLFSVQVNMSVNALGHLQLSNIKLNDENCQRLMTFLSELTRGPTLLNVTLQHIETTWKCSVKLFQFFWPRPVEYLNIYNLTITERIDREEFTYSETALKSLMIEHVKNQVFLFSKEALYSVFAEMNIKMLSISDTPFIHMVCPPSPSSFTFLNFTQNVFTDSVFQGCSTLKRLQTLILQRNGLKNFFKVALMTKNMSSLETLDVSLNSLNSHAYDRTCAWAESILVLNLSSNMLTGSVFRCLPPKVKVLDLHNNRIMSIPKDVTHLQALQELNVASNSLTDLPGCGAFSSLSVLVIDHNSVSHPSEDFFQSCQNIRSLTAGNNPFQCTCELRDFVKNIGWVAREVVEGWPDSYRCDYPESSKGTALRDFHMSPLSCDTVLLTVTIGATMLVLAVTGAFLCLYFDLPWYVRMLCQWTQTRHRARHIPLEELQRNLQFHAFVSYSEHDSAWVKNELLPNLEKDDIRVCLHERNFVPGKSIVENIINFIEKSYKAIFVLSPHFIQSEWCHYELYFAHHNLFHEGSDNLILILLEPILQNNIPSRYHKLRALMAQRTYLEWPTEKGKRGLFWANLRASFIMKLALVNEDDVKT

These are yes or no findings as the source states them, for the method shown. In cells and extracts the contact can be indirect. Binding can be weak; no strength is given.
